## Library screen at single concentrations

By UniProt entry, the sequences of proteins in these tests, tags left out. Residues count along the entry.
UniProt P9WFT3, whole entry: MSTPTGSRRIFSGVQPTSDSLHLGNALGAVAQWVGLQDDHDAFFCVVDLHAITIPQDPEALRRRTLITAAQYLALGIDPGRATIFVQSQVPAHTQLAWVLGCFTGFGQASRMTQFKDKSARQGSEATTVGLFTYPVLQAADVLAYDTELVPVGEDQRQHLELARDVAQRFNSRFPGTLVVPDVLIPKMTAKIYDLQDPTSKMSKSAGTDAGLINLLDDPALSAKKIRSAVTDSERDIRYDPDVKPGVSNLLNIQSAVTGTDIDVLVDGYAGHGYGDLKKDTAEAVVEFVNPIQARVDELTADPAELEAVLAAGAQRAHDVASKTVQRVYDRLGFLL
UniProt Q4DA54, 1-478: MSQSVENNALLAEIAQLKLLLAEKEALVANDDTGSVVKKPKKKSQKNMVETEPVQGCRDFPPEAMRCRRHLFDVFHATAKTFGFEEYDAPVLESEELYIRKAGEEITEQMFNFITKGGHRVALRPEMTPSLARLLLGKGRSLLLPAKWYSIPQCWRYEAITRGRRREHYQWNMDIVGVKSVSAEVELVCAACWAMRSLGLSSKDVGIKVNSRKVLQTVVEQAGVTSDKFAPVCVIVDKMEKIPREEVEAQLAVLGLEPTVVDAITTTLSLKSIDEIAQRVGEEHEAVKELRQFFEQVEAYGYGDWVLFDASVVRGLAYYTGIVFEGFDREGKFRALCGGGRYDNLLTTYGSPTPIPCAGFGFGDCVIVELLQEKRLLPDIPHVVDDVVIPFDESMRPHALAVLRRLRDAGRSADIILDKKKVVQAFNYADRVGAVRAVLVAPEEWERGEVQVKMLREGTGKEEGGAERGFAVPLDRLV

From ChEMBL document CHEMBL3988442, “University of Dundee, Small-Polar-MMV Screening Library” (2021).

A: 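Tryptophan-tRNA ligase, Mycobacterium tuberculosis (UniProt P9WFT3). Enzyme assay of tryptophanyl-tRNA synthetase; the read-out is not stated. Concentration: 10 µM. Higher most likely means stronger inhibition; the record gives no direction and few retests gave an IC50. Size under these conditions: about 65,000 compounds, about 64 of them at 50% or above in at least one test.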
B: 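Cell assay of Leishmania donovani living inside macrophages; the read-out is not stated. Concentration: 30 µM. The record gives no direction; compounds that gave an IC50 in retests scored well above the rest, so higher reads as stronger inhibition. Size under these conditions: about 69,000 compounds, about 1,000 of them at 50% or above in at least one test.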
C: 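Enzyme assay of histidyl-tRNA synthetase; the read-out is not stated. Target: Histidine-tRNA ligase, Trypanosoma cruzi CL Brener (UniProt Q4DA54). Concentration: 30 µM. Direction is inferred from retests: higher values go with stronger inhibition. Of about 69,000 compounds tested this way, about 31 (0.045%) reached 50% or more in at least one test.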

Values are the deposited “Percent Effect”, in %. How 0% and 100% were set is not recorded. Most values in the screen are low, and negative values occur. Compounds were drawn at random from those tested, without regard to their results.

{"compound": "CCn1cnnc1C1CCN(C(=O)COCCc2ccccc2)CC1", "A": -3.049, "B": 5.763, "C": 0.3774}
{"compound": "Cn1ccc(CS(=O)(=O)Cc2cccc(F)c2)cc1=O", "A": -0.8895, "B": 33.72, "C": -3.448}
{"compound": "COc1ccccc1C(=O)NCC(c1cccn1C)N1CCOCC1", "stereo": "centres unmarked", "A": -2.205, "B": 11.6, "C": 7}
{"compound": "Brc1ccc(CNCc2nnc3n2CCCCC3)s1.Cl", "B": 3.525}
{"compound": "COc1ccccc1NCC(=O)NCc1scnc1C", "A": -0.4409, "B": 29.29, "C": 5.911}
{"compound": "Cc1cc(C)n(CC2CCCN2C(=O)c2cc[nH]n2)n1", "stereo": "centres unmarked", "A": 0.6823, "B": -9.303, "C": 4.135}
{"compound": "CCc1nnc2n1CCN(C(=O)c1cc3cc(C)ccc3[nH]1)C2", "A": -1.071, "B": -7.993, "C": 5.747}
{"compound": "Cc1cn[nH]c1C1COCCN1C(=O)c1cc(F)ccc1F", "stereo": "centres unmarked", "A": 1.257, "B": -25.15, "C": -2}
{"compound": "COC(=O)CC(NC(=O)c1cc(OC)c2c(c1)OCCO2)c1cccs1", "stereo": "centres unmarked", "A": -0.000009, "B": 9.158, "C": 5}
{"compound": "Cc1cnn(CC2CCCN2Cc2noc(C(C)(C)C)n2)c1", "stereo": "centres unmarked", "A": -7.284, "B": 11.43, "C": -0.5634}
{"compound": "COc1ccccc1C(=O)N1CCCC1c1nncn1CC(C)C", "stereo": "centres unmarked", "A": 2.785, "B": 14.29, "C": 4.972}
{"compound": "Cn1ccnc1C(=O)N1CCC2(CCCN2CC2CC2)CC1", "A": -6.982, "C": 2.674}
{"compound": "COCCC(=O)N1CCCC(c2nc(O)cc(-c3ccncc3)n2)C1", "stereo": "centres unmarked", "B": 7.784, "C": 4.255}
{"compound": "CC[S+](CC)[c-]1c(=O)[nH]c(=O)n(CCc2ccc(F)cc2)c1=O", "A": -4.003, "B": 6.882, "C": 6.25}
{"compound": "CCCS(=O)(=O)N1C[C@@H](OCc2ccncc2)[C@H]2OCCC[C@H]21", "A": -1.221, "C": 7.438}
{"compound": "O=C(NCCCn1cccn1)c1nnc2ccccc2n1", "A": 4.875, "B": 47.92, "C": 5.263}
{"compound": "O=C(CN1CC(c2nc(C3CC3)no2)C1)NCc1ccc(F)cc1", "A": 6.166, "C": 1.587}
{"compound": "CC1CN(C)CCN1C(=O)Nc1nc(-c2ccco2)cs1", "stereo": "centres unmarked", "A": 5.376, "B": 11.53, "C": 8.205}
{"compound": "CC(C)N1CCC(NC(=O)NC2CCOc3ccc(Br)cc32)CC1", "stereo": "centres unmarked", "A": 1.001, "B": 3.556, "C": 4.255}
{"compound": "COCCC1COC2(CCN(C(=O)CC3CCCC3)CC2)C1", "stereo": "centres unmarked", "A": -6.312, "B": -4.613, "C": 3.448}
{"compound": "N#Cc1cc(C#N)c(SCC(=O)Nc2ccc(F)cc2)nc1N", "A": 1.147, "B": -20.76, "C": 3.509}
{"compound": "CCC(=O)N1CCC(c2nc(C)ncc2-c2ccncc2)CC1", "A": -3.87, "B": 20.37, "C": 0.7576}
{"compound": "O=C(NC1COC2(CCN(Cc3ccccn3)CC2)C1)c1ccccn1", "stereo": "centres unmarked", "A": -2.095, "C": 1.087}
{"compound": "Cc1ccn2c(=O)cc(CSCC(=O)Nc3nnc(C(C)C)s3)nc2c1", "A": 24.43, "B": -5.75, "C": -26}
{"compound": "Cc1ccc(C2(O)CCN(C(=O)c3sccc3S(N)(=O)=O)CC2)nc1", "A": 2.488, "B": 21.48, "C": 4.95}

Once more, the final 2:

Compound,A,B,C
Cc1ccn2c(=O)cc(CSCC(=O)Nc3nnc(C(C)C)s3)nc2c1,24.43,-5.75,-26
Cc1ccc(C2(O)CCN(C(=O)c3sccc3S(N)(=O)=O)CC2)nc1,2.488,21.48,4.95